Values quoted from earlier work as cited in publication PMC10052025 (Pharmaceutics, 2023).

Biological target: T1, OATP1B1 (Homo sapiens, UniProt Q9Y6L6)
T1 sequence (Q9Y6L6 1-691): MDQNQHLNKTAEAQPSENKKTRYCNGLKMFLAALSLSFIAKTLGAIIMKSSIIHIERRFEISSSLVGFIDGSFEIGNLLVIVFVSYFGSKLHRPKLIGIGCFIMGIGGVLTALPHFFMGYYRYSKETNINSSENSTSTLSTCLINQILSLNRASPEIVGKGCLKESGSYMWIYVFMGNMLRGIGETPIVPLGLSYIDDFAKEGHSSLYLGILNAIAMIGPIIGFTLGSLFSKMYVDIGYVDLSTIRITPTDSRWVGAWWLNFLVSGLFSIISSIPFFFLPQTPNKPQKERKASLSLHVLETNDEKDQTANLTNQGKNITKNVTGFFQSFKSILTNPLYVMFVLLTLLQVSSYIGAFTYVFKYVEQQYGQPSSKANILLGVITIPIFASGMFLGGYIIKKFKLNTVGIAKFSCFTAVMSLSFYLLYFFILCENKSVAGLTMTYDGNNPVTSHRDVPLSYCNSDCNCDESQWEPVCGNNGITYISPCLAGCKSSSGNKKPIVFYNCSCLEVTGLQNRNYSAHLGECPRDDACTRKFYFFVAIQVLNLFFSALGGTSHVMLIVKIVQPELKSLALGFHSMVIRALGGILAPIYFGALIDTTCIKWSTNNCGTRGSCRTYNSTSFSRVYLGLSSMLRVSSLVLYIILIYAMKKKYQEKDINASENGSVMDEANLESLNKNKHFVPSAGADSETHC
Parameters: FLAG; expressed in transfected cells
Details: 20 µM; cited from earlier work

COC(=O)C1=C(C)NC(C)=C(C(=O)OC)C1c1ccccc1[N+](=O)[O-] [nifedipine]
inhibition of OATP1B1-mediated transport: > 50%
